One substance from paper PMC4183429 can be followed below.

By UniProt entry, the sequences of proteins in these tests, tags left out.
UniProt P32447: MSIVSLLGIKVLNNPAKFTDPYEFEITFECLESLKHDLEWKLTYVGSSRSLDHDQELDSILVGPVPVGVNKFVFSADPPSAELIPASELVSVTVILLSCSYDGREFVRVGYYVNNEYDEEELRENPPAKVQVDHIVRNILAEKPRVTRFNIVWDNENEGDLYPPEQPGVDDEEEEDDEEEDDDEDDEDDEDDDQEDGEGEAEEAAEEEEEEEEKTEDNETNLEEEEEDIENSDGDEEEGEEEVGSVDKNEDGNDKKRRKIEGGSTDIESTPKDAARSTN
UniProt P22216: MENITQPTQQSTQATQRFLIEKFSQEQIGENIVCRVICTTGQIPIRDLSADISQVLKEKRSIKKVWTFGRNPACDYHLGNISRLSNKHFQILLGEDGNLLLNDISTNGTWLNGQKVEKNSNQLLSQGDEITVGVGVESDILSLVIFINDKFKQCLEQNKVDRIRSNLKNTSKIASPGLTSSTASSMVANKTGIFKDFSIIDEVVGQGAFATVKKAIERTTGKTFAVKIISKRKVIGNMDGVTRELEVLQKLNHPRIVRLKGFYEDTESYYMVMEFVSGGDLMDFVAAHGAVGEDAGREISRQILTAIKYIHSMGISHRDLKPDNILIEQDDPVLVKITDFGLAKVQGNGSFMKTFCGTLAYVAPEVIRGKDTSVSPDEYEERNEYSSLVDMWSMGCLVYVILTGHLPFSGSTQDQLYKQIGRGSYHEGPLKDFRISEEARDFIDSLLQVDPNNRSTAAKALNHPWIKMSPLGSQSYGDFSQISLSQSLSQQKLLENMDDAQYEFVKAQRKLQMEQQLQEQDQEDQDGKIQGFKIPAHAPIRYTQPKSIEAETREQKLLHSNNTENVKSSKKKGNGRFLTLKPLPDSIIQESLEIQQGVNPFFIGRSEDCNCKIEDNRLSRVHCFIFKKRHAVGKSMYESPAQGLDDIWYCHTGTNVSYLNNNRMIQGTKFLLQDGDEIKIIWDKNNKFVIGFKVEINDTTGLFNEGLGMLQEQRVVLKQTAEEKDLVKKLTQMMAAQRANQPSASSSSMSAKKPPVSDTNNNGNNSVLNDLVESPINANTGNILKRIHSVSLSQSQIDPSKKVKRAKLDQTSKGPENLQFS

The target in the test is Asf1-3×HA (S. cerevisiae) (UniProt P32447). Kind of test: co-IP; anti-HA-protein G beads precipitate Asf1-3×HA from 5 mg protein extract of WT or htb-K123R cells, untreated or treated with 0.2M HU for 90 minutes; 50 mM Tris 7.5, 150 mM NaCl, 5 mM EDTA, 0.5% Triton X-100; 4°C; blot with anti-Rad53.

Results are given in words; binding and its absence hold for the method and conditions named. Binding seen in cells or lysates may run through a third protein. Some results given as binding are weak or reduced against the parent protein; the word gives no strength.

As to Rad53 (from UniProt P22216 1-821), the binding result was “binds”.
